# From PubChem BioAssay AID624297 (National Center for Advancing Translational Sciences (NCATS), 2012)
# “And” between values parts separate entries of the source, which are not always exact repeats. Equal entries are not always repeated. Out of some 340,000 compounds screened, about 6,200 (1.8%) were called active. This list was built around the results that the source calls inconclusive (neither active nor inactive); the mix of calls is not that of the screen. Calls follow the shape of the dose curve; as a rule, active = well fitted activation curve with a large enough effect; inconclusive = small, poorly fitted or top-dose-only effect; inactive = no such curve, though single readings can be large or run the other way. Potencies of inconclusive entries are doubtful fits and often do not repeat.
# Experiment: A quantitative high throughput screen for small molecules that induce DNA re-replication in SW480 colon adenocarcinoma cells. Also: nearly all actives have a fitted effect of over 55% in size. As to re-replication activation: % of control where 0% means no effect.
# Conditions: Hoechst DNA content imaging, 48 h; re-replication activation: at 46.1 µM (top of the series)
# Excerpt: H Molecular Libraries Probe Production Network [MLPCN] NIH Chemical Genomics Center [NCGC] MLPCN Grant: Fast Track K99 CA136555 Assay Provider: Melvin DePamphilis, NICHD, NIH Assay Overview Eukaryotic cells normally restrict genome duplication to once per cell division. When this process is aberrant, DNA re-replication occurs when cells reinitiate DNA replication before the first round of replication is complete. DNA re-replication induces the DNA damage response, arrests cell proliferation, and triggers apoptosis. The cell cycle components cyclin A, Cdt-1, Cdc6 and geminin are critical regulators of this process and their misregulation results in DNA re-replication in normal and cancer cells. To identify compounds that induce re-replication in normal cells, an image-based assay was used to measure DNA content of nuclei, as detected by the fluorescent DNA binding dye, Hoechst. Cell nuclei were imaged by a fluorescence scanning plate imager and compounds that induce DNA re-replication were identified by the increase of nuclei with elevated fluorescence intensity
# For screening, 250 cells in 5 uL/well were dispensed into black clear 1536-well plates (Aurora) using a solenoid-based dispenser. Following transfer of 23 nL compound or DMSO vehicle by a pin tool, the plates were incubated 48 hr at 37 C and 5% CO2. After addition of 1 uL/well Hoescht stain, the plates were incubated 40 min at 37 C, 5% CO2 and total intensity of fluorescent objects (nuclei) were enumerated by an Acumen Explorer Ex3 (TTP LabTech) fluorescence scanning plate imager (405 nm excitation, 500-530 nm emission). Keywords: NIH Roadmap, MLPCN, MLI, MLSMR, qHTS, NCGC, DNA replication, cancer
# Potency is read from the fitted curve at half-maximal effect.
Compound,Potency,re-replication activation
Cc1onc(-c2ccccc2)c1C(=O)N[C@@H]1C(=O)N2C1SC(C)(C)[C@@H]2C(=O)O (stereo not given in full),"inconclusive: 16.4 µM [activator, single point]",
CCCOC(=O)c1c(N)n(Cc2cccs2)c2nc3ccccc3nc12,"inconclusive: 18.4 µM [activator, single point]",
CCOc1cc2c(cc1OCC)-n1cccc1C(c1ccc(OC)c(OC)c1)NC2 (stereo not given),inactive,
O=c1[nH]c(=O)n(Cc2ccc(F)cc2)c(O)c1C=NCC1CCCO1 (stereo not given),"inconclusive: 0.0041 µM [activator, full curve, poor fit]",
CCOC(=O)c1cnc(N2CC2)nc1N,"inconclusive: 29.1 µM [activator, single point]",
COCCCn1c(=O)/c(=C/c2ccccc2OC(F)F)s/c1=C(\C#N)C(=O)NCCOC,inactive,
COc1cc2c(cc1O)[C@@H]1Cc3ccc(OC)c(O)c3CN1CC2,"inconclusive: 20.6 µM [activator, single point]",
CCOc1ccc(-c2cc(C)[n+](CCN3CCOCC3)c(-c3ccc(OCC)cc3)c2)cc1,"inconclusive: 18.4 µM [activator, single point]",
C=C[C@H]1CN2CC[C@H]1C[C@@H]2[C@@H](O)c1ccnc2ccccc12,"inconclusive: 0.13 µM [activator, partial curve, poor fit]",
COc1cccc2c1C(=O)c1c(O)c3c(c(O)c1C2=O)CC(O)(C(C)=NO)CC3OC1CC(N)C(O)C(C)O1 (stereo not given),inactive,
Clc1ccc2c(c1)C(OC1CN3CCC1CC3)c1ccccc1CS2 (stereo not given),"inconclusive: 29.1 µM [activator, single point]",
COc1cc(C2c3cc4c(cc3CC3COC(=O)C32)OCO4)cc(OC)c1OC (stereo not given),"inconclusive: 1.64 µM [activator, full curve, poor fit]",
C/C(=C\c1csc(C)n1)[C@@H]1C[C@@H]2O[C@]2(C)CCC[C@H](C)[C@H](O)[C@@H](C)C(=O)C(C)(C)[C@@H](O)CC(=O)O1,"inconclusive: 3.35 µM [activator, full curve, poor fit]",
CCC(C)C(=O)N[C@@H](c1ccccc1)[C@@H](O)C(=O)O[C@H]1C[C@@]2(O)[C@@H](OC(=O)c3ccccc3)C3[C@](C)(C(=O)[C@H](OC(C)=O)C(=C1C)C2(C)C)[C@@H](O)C[C@H]1OC[C@@]31OC(C)=O (stereo not given in full),active: 1.64 µM,
CCCCC(CC)COP(=O)(OCC(CC)CCCC)OCC(CC)CCCC (stereo not given),"inconclusive: 0.259 µM [activator, single point]",
COC(=O)C(O)(c1ccc(N(C)C(=O)c2cccs2)cc1)C(F)(F)F (stereo not given),inactive,
CCOC(=O)[C@]12Cc3cc(Cl)ccc3[C@H]1N(Cc1ccccc1)C(=O)c1ccccc12,,inactive: 1.9% [at 9.22 µM]
Cc1ccc(Cn2nc(C(=O)Nc3ccc(Br)cc3)cc2C)cc1,"inconclusive: 0.092 µM [activator, full curve, poor fit]",
CN1CCN(C(=S)SCC(=O)Nc2ccc(Cl)cc2C(=O)c2ccccc2)CC1,"inconclusive: 16.4 µM [activator, partial curve, poor fit]",
CN1CCCC(C(=O)c2ccc(Cl)cc2)C1 (stereo not given),"inconclusive: 29.1 µM [activator, single point]",

Compound,Potency,re-replication activation
Cc1ccc(S(=O)(=O)N2CCCCC2)cc1NC(=O)CSc1ncnc2ccccc12,"inconclusive: 16.4 µM [activator, partial curve, poor fit]",
CN1OC[C@@H]2CN[C@H](c3ccccc3Br)C[C@@H]21,"inconclusive: 1.03 µM [activator, partial curve, poor fit]",
C/C1=C\[C@@H](C)C/C=C/[C@H]2[C@@H]3O[C@]3(C)[C@@H](C)[C@H]3[C@H](Cc4c[nH]c5ccccc45)NC(=O)[C@]32C(=O)/C=C/C(=O)[C@@H]1O,active: 1.16 µM,
O=C(COc1ccc2ccccc2c1)N1CCN(Cc2c[nH]c3ccccc23)CC1,"inconclusive: 29.1 µM [activator, single point]",
COc1ccc(N2C(=O)NC(=O)/C(=C\c3cn(C)c4ccccc34)C2=O)cc1,,inconclusive: 37.4% [activator]
COc1cc(O)cc2c1C(=O)O[C@@H](C)CCCC(=O)CCCCC2,inactive,
COC(=O)C1=C(c2ccc(F)cc2OCc2ccccc2)C[C@@H]2CC[C@H]1N2C(=O)NCc1ccccc1C(F)(F)F,inactive,
O=C(c1ccccc1F)N1CCC2(CC1)OCCO2,"inconclusive: 0.58 µM [activator, full curve, poor fit]",
Cc1ccccc1CCNCc1ccc(Br)cc1,inactive,
CCCN1CCC[C@@H]2Cc3nc(N)ncc3C[C@H]21,"inconclusive: 23.1 µM [activator, single point]",
O=C(O)c1ccccc1O,"inconclusive: 2 µM [activator, partial curve, poor fit]",
CN(C)C(=O)Oc1ccc2nnc3ccnn3c2c1,inactive,
COc1ccc(-n2nc(C(=O)NCC(=O)N3CCC4(CC3)OCCO4)c3ccccc3c2=O)cc1OC,inactive,
CCCCCCN1CCN(c2ccccc2Cl)CC1,"inconclusive: 23.1 µM [activator, partial curve, poor fit]",
Oc1ccc(Cl)cc1Sc1cc(Cl)ccc1O,"inconclusive: 9.44 µM [activator, partial curve, poor fit] and inconclusive: 29.1 µM [activator, single point]",
O=C1NC2C(O)C(O)C(O)C(O)C2c2cc3c(c(O)c21)OCO3 (stereo not given),inactive,
CCCC1(CCC)C(=O)NC(=NCc2ccccc2)NC1=O,"inconclusive: 18.4 µM [activator, single point]",
CC[C@H]1CC2CN3CCc4c([nH]c5cc(OC)ccc45)[C@](C(=O)OC)(C2)[C@H]13,active: 0.731 µM,
CN1c2ccc([N+](=O)[O-])cc2CC2(C(=O)NC(=O)N(c3ccc(Br)cc3)C2=O)C1c1ccccc1 (stereo not given),inactive,
CCN(c1ccc(C)cc1C)S(=O)(=O)c1nnc(NC(=O)c2ccco2)s1,"inconclusive: 23.1 µM [activator, partial curve, poor fit]",

# Fetched by compound from the list above (3):
Compound,Potency,re-replication activation
CCCN1CCC[C@@H]2Cc3nc(N)ncc3C[C@H]21,"inconclusive: 23.1 µM [activator, single point]",
O=C(COc1ccc2ccccc2c1)N1CCN(Cc2c[nH]c3ccccc23)CC1,"inconclusive: 29.1 µM [activator, single point]",
CCCC1(CCC)C(=O)NC(=NCc2ccccc2)NC1=O,"inconclusive: 18.4 µM [activator, single point]",
